Measured values as given in paper PMC7212649, “An arrestin-1 surface opposite of its interface with photoactivated rhodopsin engages with enolase-1” (The Journal of Biological Chemistry, 2020).
Results are given in words; binding and its absence hold for the method and conditions named. For some assays here: Binding seen in cells or lysates may run through a third protein. Some results given as binding are weak or reduced against the parent protein; the word gives no strength.

By UniProt entry, the sequences of proteins in these tests, tags left out.
UniProt P02699: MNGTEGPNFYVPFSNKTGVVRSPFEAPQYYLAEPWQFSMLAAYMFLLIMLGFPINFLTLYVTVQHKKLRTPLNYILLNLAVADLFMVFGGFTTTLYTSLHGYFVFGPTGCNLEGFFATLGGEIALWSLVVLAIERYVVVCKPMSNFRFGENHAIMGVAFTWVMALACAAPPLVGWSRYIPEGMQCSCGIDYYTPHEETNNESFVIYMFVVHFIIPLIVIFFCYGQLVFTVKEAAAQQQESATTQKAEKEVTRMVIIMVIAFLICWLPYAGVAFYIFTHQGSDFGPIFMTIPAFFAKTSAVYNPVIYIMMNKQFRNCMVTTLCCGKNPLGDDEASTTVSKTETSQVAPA
UniProt Q9XSJ4: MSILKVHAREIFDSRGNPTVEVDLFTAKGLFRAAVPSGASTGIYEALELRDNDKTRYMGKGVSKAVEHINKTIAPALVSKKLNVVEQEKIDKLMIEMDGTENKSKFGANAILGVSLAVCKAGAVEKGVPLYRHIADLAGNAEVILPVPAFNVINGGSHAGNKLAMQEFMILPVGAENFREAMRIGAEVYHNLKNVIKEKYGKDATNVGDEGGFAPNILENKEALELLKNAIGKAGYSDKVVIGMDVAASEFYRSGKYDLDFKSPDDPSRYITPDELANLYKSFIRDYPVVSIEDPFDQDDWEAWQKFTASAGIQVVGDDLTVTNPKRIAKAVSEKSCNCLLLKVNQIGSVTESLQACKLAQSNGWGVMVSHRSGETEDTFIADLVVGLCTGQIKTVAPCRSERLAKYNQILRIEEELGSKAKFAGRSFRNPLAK

How the values were obtained:
[1] = molecular target: arrestin-1 "3A" (F375A/V376A/F377A) (bovine) (UniProt P08168); experiment: co-IP; 5 μM arrestin-1 (or mutant) with 5 μM enolase-1–Alexa 546 in LAP200N, 2 h at 4 °C; captured by C10C10 anti-arrestin-1 mAb on Protein G magnetic beads for 16 h, 10 washes, eluted at pH 2.5; fluorescence of captured enolase-1 read; both purified
[2] = molecular target: phosphorylated rhodopsin kept in the dark, in rod disc membranes (UniProt P02699); experiment: co-sedimentation; 2 μM arrestin-1 with or without 2 μM enolase-1/GFP mixed with 5 μM pRho in rod disc membranes, dark or light for 1 min; 18,000 x g 15 min; pellet on 12% SDS-PAGE, Coomassie; only the binder purified

binding [1]	Substance	binding [2]
binds	enolase-1 labeled with Alexa Fluor 546 (from UniProt Q9XSJ4 1-434) (enzyme)	
	enolase-1/GFP fusion (from UniProt Q9XSJ4 1-434) (enzyme)	no binding (tested: 2 μM enolase-1/GFP, 5 μM pRho)
